In article PMC6459869 one finds binding data, which are given here for two substances.

By UniProt entry, the sequences of proteins in these tests, tags left out. Where a name states a change or a piece, a line headed by the entry shows the natural chain unless it says otherwise.
UniProt Q61188: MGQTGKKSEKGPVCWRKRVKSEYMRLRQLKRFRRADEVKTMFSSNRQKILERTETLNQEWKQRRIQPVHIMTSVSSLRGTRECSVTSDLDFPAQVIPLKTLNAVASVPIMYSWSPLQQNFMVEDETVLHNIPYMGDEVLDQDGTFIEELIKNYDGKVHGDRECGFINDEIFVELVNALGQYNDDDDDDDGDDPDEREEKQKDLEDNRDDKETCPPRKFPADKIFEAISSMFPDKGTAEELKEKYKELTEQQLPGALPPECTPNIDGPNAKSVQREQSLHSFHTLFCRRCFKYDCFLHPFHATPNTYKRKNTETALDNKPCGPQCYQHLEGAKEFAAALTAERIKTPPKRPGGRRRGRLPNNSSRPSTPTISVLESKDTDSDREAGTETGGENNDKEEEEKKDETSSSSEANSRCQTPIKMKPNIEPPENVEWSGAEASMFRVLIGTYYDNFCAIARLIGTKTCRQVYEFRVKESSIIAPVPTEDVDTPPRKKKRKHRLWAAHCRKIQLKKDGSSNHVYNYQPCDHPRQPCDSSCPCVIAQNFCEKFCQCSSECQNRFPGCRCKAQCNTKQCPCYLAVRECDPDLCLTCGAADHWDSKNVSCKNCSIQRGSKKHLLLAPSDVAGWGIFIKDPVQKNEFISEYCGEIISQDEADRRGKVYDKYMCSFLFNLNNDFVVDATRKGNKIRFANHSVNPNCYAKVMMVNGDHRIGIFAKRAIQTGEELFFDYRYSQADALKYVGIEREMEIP
UniProt Q921E6: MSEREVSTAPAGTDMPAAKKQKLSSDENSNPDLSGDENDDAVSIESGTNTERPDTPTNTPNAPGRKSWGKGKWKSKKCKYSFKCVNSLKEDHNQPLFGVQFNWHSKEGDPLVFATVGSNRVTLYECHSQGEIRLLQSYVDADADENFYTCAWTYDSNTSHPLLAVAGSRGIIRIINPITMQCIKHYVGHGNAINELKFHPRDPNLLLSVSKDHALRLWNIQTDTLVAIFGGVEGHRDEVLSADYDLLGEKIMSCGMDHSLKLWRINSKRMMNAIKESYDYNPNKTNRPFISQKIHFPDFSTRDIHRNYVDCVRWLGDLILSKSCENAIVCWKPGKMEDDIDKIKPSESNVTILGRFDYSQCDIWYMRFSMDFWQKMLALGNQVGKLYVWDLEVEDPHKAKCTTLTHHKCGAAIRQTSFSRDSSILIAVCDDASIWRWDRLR
UniProt Q80U70: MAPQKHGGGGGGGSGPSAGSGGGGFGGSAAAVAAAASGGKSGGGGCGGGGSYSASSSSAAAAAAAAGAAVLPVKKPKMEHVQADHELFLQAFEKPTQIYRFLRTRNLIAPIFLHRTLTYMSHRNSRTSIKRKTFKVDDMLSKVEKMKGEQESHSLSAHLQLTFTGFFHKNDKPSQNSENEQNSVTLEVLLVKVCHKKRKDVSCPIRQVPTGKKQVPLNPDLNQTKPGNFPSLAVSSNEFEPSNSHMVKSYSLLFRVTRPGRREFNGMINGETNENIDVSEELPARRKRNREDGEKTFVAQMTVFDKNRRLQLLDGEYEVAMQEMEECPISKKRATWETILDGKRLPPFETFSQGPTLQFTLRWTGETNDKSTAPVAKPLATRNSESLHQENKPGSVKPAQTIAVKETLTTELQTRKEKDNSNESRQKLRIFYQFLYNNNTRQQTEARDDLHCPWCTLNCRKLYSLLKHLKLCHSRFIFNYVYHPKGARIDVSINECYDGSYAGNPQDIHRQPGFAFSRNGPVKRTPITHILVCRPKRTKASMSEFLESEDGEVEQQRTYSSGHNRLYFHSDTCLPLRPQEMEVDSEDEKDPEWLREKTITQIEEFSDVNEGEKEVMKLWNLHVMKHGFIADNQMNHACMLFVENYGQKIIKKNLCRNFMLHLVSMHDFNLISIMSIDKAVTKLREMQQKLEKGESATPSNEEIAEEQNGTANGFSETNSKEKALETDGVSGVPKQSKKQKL

Results are given in words; binding and its absence hold for the method and conditions named. In cells and extracts the contact can be indirect. Some binding calls cover weakened binding; strength is not graded here.

The target of assay [1] is EZH2 (wild type, endogenous in WT mouse ESCs) (mouse (endogenous in E14TG2a ESCs)) (UniProt Q61188). The experiment in a line: co-IP; immunoprecipitation of EZH2 from 1 mg total protein extract of mouse ESC lines with homemade anti-EZH2 (AC22) cross-linked sepharose beads, 3 to 4 h at 4 °C; S300 buffer (20 mM Tris-HCl pH 8.0, 300 mM NaCl, 10% glycerol, 0.2% NP-40), 5 washes; western blot. On the technique in general: A western blot detects proteins with antibodies after separation by electrophoresis.

The target of assay [2] is EZH2 Y726D mutant (homozygous knock-in in Ezh1 KO mouse ESCs) (mouse (endogenous in E14TG2a ESCs)) (UniProt Q61188). The description is as above.

For the substance EED (from UniProt Q921E6 1-441), the binding result in assay [1] and in assay [2] was “binds” each time. Turning to SUZ12 (from UniProt Q80U70 1-741), the binding entry in assay [2] is “binds”.
